In test [1] the target is MDM2, endogenous in human NSCLC cells (human (endogenous in A549 and H1299)) (UniProt Q00987). The experiment in a line: co-IP; endogenous proteins, A549 cell lysate; IP with mouse anti-MDM2 or rabbit anti-KL; immunoblot; some samples with si-SHANK1.
In test [2] the target is SHANK1-myc (SH3 and multiple ankyrin repeat domains 1, myc-tagged) (UniProt Q9Y566). The experiment in a line: co-IP; transfected A549 cells (the text says HEK-293 for Fig. 5A); lysate in TNE buffer or IP buffer (50 mM Tris-HCl, 2 mM EDTA, 250 mM NaCl, 10% glycerol, 0.5% NP-40); IP with anti-FLAG, anti-HA or anti-Myc and Protein G agarose overnight at 4 °C; immunoblot; some samples with SHANK1 overexpression, sh/si-SHANK1 or si-MDM2. Background: In western blotting, separated proteins are transferred to a membrane and probed.

The chains behind the UniProt entries cited, without tags or fusion partners.
UniProt Q00987: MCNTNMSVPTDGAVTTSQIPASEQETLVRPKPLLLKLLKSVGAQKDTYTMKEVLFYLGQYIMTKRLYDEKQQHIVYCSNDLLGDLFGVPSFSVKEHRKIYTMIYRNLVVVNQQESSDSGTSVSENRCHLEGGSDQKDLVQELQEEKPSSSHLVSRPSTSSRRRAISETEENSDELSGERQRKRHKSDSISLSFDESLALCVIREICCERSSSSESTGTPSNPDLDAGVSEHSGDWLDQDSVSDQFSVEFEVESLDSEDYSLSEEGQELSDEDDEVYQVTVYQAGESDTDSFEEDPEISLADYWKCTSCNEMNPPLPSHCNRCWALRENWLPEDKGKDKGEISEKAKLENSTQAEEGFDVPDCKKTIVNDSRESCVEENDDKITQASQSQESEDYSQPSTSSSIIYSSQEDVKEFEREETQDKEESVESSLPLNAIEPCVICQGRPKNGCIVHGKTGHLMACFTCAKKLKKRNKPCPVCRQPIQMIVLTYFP
UniProt Q9Y566: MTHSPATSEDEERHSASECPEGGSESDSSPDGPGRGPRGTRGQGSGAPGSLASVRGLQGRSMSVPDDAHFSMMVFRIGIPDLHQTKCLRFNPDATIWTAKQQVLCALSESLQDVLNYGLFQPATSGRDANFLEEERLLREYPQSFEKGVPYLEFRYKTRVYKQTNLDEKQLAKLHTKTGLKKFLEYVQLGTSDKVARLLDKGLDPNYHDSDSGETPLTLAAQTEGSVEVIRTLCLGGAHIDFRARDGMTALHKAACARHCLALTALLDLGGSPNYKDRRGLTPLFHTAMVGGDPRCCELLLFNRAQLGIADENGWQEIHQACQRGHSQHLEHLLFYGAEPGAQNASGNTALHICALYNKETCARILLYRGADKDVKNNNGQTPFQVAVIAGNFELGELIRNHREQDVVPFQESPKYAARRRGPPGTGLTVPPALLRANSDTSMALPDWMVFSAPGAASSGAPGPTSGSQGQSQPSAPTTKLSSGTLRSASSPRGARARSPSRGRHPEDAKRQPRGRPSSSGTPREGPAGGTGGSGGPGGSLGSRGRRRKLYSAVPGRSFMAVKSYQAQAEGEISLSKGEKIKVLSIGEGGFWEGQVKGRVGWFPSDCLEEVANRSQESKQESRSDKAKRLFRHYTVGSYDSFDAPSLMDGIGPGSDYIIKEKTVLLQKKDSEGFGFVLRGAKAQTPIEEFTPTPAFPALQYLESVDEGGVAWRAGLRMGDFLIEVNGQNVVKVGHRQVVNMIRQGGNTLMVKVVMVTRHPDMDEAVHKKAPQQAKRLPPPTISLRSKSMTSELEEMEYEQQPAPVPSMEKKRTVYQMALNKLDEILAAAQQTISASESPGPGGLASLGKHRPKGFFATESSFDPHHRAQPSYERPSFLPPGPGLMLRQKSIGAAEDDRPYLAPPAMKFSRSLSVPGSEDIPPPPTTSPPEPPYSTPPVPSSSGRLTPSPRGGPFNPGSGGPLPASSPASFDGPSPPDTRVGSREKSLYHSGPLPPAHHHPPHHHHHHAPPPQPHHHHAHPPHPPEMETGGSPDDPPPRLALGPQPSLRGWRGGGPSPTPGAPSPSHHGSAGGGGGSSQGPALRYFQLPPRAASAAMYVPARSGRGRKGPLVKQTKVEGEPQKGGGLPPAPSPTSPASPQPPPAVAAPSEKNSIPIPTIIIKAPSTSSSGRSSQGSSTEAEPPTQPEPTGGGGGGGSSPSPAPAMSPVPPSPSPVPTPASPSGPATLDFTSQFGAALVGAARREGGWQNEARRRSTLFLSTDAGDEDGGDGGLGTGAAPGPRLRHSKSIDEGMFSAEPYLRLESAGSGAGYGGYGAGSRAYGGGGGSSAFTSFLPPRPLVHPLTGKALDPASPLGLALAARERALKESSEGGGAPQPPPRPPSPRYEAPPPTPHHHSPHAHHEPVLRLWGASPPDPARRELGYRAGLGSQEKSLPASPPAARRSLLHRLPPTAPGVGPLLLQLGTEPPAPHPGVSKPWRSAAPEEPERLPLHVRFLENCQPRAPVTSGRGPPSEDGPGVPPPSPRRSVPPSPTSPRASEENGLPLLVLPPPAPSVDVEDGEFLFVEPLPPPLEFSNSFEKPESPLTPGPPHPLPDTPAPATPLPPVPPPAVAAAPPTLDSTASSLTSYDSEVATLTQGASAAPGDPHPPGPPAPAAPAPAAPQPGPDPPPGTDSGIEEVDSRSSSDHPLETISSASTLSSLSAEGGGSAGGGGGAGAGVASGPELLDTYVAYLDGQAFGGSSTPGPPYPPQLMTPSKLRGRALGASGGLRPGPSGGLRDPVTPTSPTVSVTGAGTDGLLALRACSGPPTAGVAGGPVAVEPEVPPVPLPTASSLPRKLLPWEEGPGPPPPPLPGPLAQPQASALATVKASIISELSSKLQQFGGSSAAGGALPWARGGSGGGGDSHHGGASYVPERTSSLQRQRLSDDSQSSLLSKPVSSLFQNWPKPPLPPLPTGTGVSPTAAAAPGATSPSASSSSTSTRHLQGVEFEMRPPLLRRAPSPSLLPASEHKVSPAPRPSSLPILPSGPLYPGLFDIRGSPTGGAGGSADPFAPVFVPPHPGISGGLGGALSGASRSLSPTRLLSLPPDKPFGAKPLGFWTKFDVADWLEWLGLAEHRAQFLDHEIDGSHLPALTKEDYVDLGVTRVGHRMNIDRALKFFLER

These are yes or no findings as the source states them, for the method shown. Binding seen in cells or lysates may run through a third protein. Some results given as binding are weak or reduced against the parent protein; the word gives no strength. For some assays here: Where a sequence is shown, tags or fusion partners need not be part of it.

This passage reports binding results from publication PMC9039064.

B1: Klotho (KL), endogenous in human NSCLC cells (protein, UniProt Q9UEF7 34-1012)
chain: EPGDGAQTWARFSRPPAPEAAGLFQGTFPDGFLWAVGSAAYQTEGGWQQHGKGASIWDTFTHHPLAPPGDSRNASLPLGAPSPLQPATGDVASDSYNNVFRDTEALRELGVTHYRFSISWARVLPNGSAGVPNREGLRYYRRLLERLRELGVQPVVTLYHWDLPQRLQDAYGGWANRALADHFRDYAELCFRHFGGQVKYWITIDNPYVVAWHGYATGRLAPGIRGSPRLGYLVAHNLLLAHAKVWHLYNTSFRPTQGGQVSIALSSHWINPRRMTDHSIKECQKSLDFVLGWFAKPVFIDGDYPESMKNNLSSILPDFTESEKKFIKGTADFFALCFGPTLSFQLLDPHMKFRQLESPNLRQLLSWIDLEFNHPQIFIVENGWFVSGTTKRDDAKYMYYLKKFIMETLKAIKLDGVDVIGYTAWSLMDGFEWHRGYSIRRGLFYVDFLSQDKMLLPKSSALFYQKLIEKNGFPPLPENQPLEGTFPCDFAWGVVDNYIQVDTTLSQFTDLNVYLWDVHHSKRLIKVDGVVTKKRKSYCVDFAAIQPQIALLQEMHVTHFRFSLDWALILPLGNQSQVNHTILQYYRCMASELVRVNITPVVALWQPMAPNQGLPRLLARQGAWENPYTALAFAEYARLCFQELGHHVKLWITMNEPYTRNMTYSAGHNLLKAHALAWHVYNEKFRHAQNGKISIALQADWIEPACPFSQKDKEVAERVLEFDIGWLAEPIFGSGDYPWVMRDWLNQRNNFLLPYFTEDEKKLIQGTFDFLALSHYTTILVDSEKEDPIKYNDYLEVQEMTDITWLNSPSQVAVVPWGLRKVLNWLKFKYGDLPMYIISNGIDDGLHAEDDQLRVYYMQNYINEALKAHILDGINLCGYFAYSFNDRTAPRFGLYRYAADQFEPKASMKHYRKIIDSNGFPGPETLERFCPEEFTVCTECSFFHTRKSLLAFIAFLFFASIISLSLIFYYSKKGRRSYK
On to B1, for which the binding entry in test [1] is reported as “binds”.

B2: Flag-KL (Flag-tagged Klotho) (protein, UniProt Q9UEF7 34-1012)
chain: B1 chain
Turning to B2, the binding entry in test [2] is “binds”.
